# Test results as given in the supplement of paper PMC7238544.
# Structures can show the parent of a compound that is named as a salt. ± gives the standard deviation of the averaged measurements. The list shows a part of the results. The data scatter; read single values as rough.
# Experiments:
# [1] = system: hAMSC donor 1; assay: Hoechst total cell count ratio vs vehicle control; higher = more cells (less toxicity)
# [2] = system: hAMSC donor 2; assay: as above
# [3] = system: hAMSC donor 1; assay: transgenic luciferase activity (RLU/mg protein) fold change vs vehicle control (ratio); higher = more transgene expression
# [4] = system: hAMSC donor 2; assay: as above
# [5] = system: hAMSC donor 1; assay: transfection efficiency (EGFP+ cells / Hoechst count) fold change vs vehicle control (ratio); hAMSC are human adipose-derived mesenchymal stem cells given an EGFP-luciferase plasmid by lipofection; higher = enhanced transfection
# [6] = system: hAMSC donor 2; assay: as above
# [7] = priming compound concentration 0.2 µM
# [8] = priming compound concentration 1.7 µM
# [9] = priming compound concentration 13 µM
Compound,"Hoechst total cell count ratio [1, 7]","Hoechst total cell count ratio [1, 8]","Hoechst total cell count ratio [1, 9]","Hoechst total cell count ratio [2, 7]","Hoechst total cell count ratio [2, 8]","Hoechst total cell count ratio [2, 9]","transgenic luciferase activity [3, 7]","transgenic luciferase activity [3, 8]","transgenic luciferase activity [4, 8]","transgenic luciferase activity [4, 9]","transfection efficiency [5, 7]","transfection efficiency [5, 8]","transfection efficiency [5, 9]","transfection efficiency [6, 7]","transfection efficiency [6, 8]","transfection efficiency [6, 9]","transgenic luciferase activity [3, 9]","transgenic luciferase activity [4, 7]"
OC(Cn1cncn1)(Cn1cncn1)c1ccc(F)cc1F [Fluconazole],1.11 ± 0.1,1.4 ± 0.2,1.36 ± 0.21,1.1 ± 0.26,1.01 ± 0.21,0.828 ± 0.15,0.59 ± 0.19,0.62 ± 0.12,0.683 ± 0.067,0.97 ± 0.26,1.04 ± 0.046,0.985 ± 0.18,1.09 ± 0.21,1.01 ± 0.19,1.25 ± 0.3,1.16 ± 0.23,–,–
CC(=O)CC(c1ccccc1)c1c(O)c2ccccc2oc1=O (stereo unspecified) [Warfarin sodium],1.26 ± 0.12,1.27 ± 0.085,1.43 ± 0.25,1.12 ± 0.12,0.706 ± 0.038,1.37 ± 0.15,0.76 ± 0.059,–,0.465 ± 0.051,–,1.38 ± 0.21,1.12 ± 0.028,1.26 ± 0.31,0.866 ± 0.072,1.58 ± 0.15,0.965 ± 0.063,9.67 ± 0.6,0.742 ± 0.055
Cn1c(=O)c2nc[nH]c2n(C)c1=O [Theophylline],1.17 ± 0.048,1.55 ± 0.22,1.35 ± 0.43,1.04 ± 0.22,1 ± 0.27,0.926 ± 0.19,0.541 ± 0.021,0.507 ± 0.12,0.854 ± 0.11,0.408 ± 0.27,1.19 ± 0.047,1.01 ± 0.16,1.06 ± 0.25,1.4 ± 0.53,1.16 ± 0.32,0.877 ± 0.014,–,–
CC(C)OC(=O)C(C)(C)Oc1ccc(C(=O)c2ccc(Cl)cc2)cc1 [Fenofibrate],1.18 ± 0.11,1.24 ± 0.077,1.36 ± 0.051,1.18 ± 0.19,0.73 ± 0.14,1.3 ± 0.26,0.529 ± 0.16,–,0.565 ± 0.15,–,1.52 ± 0.33,1.01 ± 0.095,1.17 ± 0.22,0.603 ± 0.024,1.37 ± 0.14,0.974 ± 0.35,5.23 ± 1.9,0.797 ± 0.21
NS(=O)(=O)Cc1noc2ccccc12 [Zonisamide],1.22 ± 0.18,0.74 ± 0.063,0.989 ± 0.14,1.5 ± 0.84,0.707 ± 0.062,0.993 ± 0.24,–,0.434 ± 0.28,0.641 ± 0.042,0.543 ± 0.098,1.39 ± 0.2,1.5 ± 0.24,1.58 ± 0.44,1.02 ± 0.11,1.24 ± 0.17,0.993 ± 0.2,0.739 ± 0.23,–
COc1ccc([C@@H]2Sc3ccccc3N(CCN(C)C)C(=O)[C@@H]2OC(C)=O)cc1 [(+)-cis-Diltiazem hydrochloride],1.15 ± 0.28,1.19 ± 0.1,1.46 ± 0.18,1.37 ± 0.054,0.853 ± 0.11,1.32 ± 0.058,0.951 ± 0.47,–,0.763 ± 0.11,–,1.48 ± 0.2,1.02 ± 0.15,1.37 ± 0.12,0.742 ± 0.022,1.84 ± 0.23,1.43 ± 0.092,15.9 ± 1.1,0.774 ± 0.17
Clc1ccc2c(c1)C(N1CCNCC1)=Nc1ccccc1O2 [Amoxapine],0.998 ± 0.096,1.03 ± 0.11,1.24 ± 0.14,1.14 ± 0.044,1.26 ± 0.15,1.41 ± 0.13,0.746 ± 0.12,1.14 ± 0.46,1.42 ± 0.27,0.458 ± 0.13,1.09 ± 0.23,1.15 ± 0.28,0.776 ± 0.18,1.19 ± 0.42,1.3 ± 0.22,0.855 ± 0.057,–,–
CC(C)C(=O)Nc1ccc([N+](=O)[O-])c(C(F)(F)F)c1 [Flutamide],1.1 ± 0.089,1.01 ± 0.14,0.725 ± 0.44,1.28 ± 0.039,0.912 ± 0.051,1.06 ± 0.06,1.08 ± 0.43,–,0.298 ± 0.16,–,1.35 ± 0.46,1.23 ± 0.31,0.919 ± 0.35,1.05 ± 0.17,1.76 ± 0.15,1.25 ± 0.069,1.8 ± 0.93,0.664 ± 0.029
c1ccc2[nH]c(-c3cscn3)nc2c1 [Thiabendazole],1.41 ± 0.081,0.746 ± 0.2,1.06 ± 0.057,0.805 ± 0.24,0.815 ± 0.16,1.23 ± 0.15,–,0.439 ± 0.3,0.535 ± 0.04,0.398 ± 0.076,1.17 ± 0.72,1.58 ± 0.69,1.6 ± 0.39,1.61 ± 0.63,1.06 ± 0.24,1 ± 0.21,1.22 ± 0.38,–
O=C1CN(/N=C/c2ccc([N+](=O)[O-])o2)C(=O)N1 [Nitrofurantoin],1.19 ± 0.15,1.12 ± 0.093,1.29 ± 0.082,1.19 ± 0.06,0.779 ± 0.042,0.829 ± 0.094,0.478 ± 0.072,0.285 ± 0.18,1.76 ± 0.58,0.38 ± 0.051,1.1 ± 0.2,1.091 ± 0.0066,0.91 ± 0.1,1.1 ± 0.3,1.14 ± 0.27,1.01 ± 0.23,–,–
COC(=O)C[C@](O)(CCCC(C)(C)O)C(=O)O[C@@H]1C(OC)=C[C@]23CCCN2CCc2cc4c(cc2[C@H]13)OCO4 [Homoharringtonine],0.866 ± 0.027,0.341 ± 0.085,0.405 ± 0.19,0.647 ± 0.028,0.388 ± 0.085,0.126 ± 0.029,1.6 ± 0.91,–,0.595 ± 0.16,–,1.31 ± 0.18,0.99 ± 0.16,0.452 ± 0.1,1.42 ± 0.31,0.993 ± 0.36,0.32 ± 0.16,0.824 ± 1.3,1.86 ± 0.2

# Taken from the listing for reference:
Compound,"Hoechst total cell count ratio [1, 7]","Hoechst total cell count ratio [1, 8]","Hoechst total cell count ratio [1, 9]","Hoechst total cell count ratio [2, 7]","Hoechst total cell count ratio [2, 8]","Hoechst total cell count ratio [2, 9]","transgenic luciferase activity [3, 7]","transgenic luciferase activity [3, 8]","transgenic luciferase activity [4, 8]","transgenic luciferase activity [4, 9]","transfection efficiency [5, 7]","transfection efficiency [5, 8]","transfection efficiency [5, 9]","transfection efficiency [6, 7]","transfection efficiency [6, 8]","transfection efficiency [6, 9]","transgenic luciferase activity [3, 9]","transgenic luciferase activity [4, 7]"
CC(C)C(=O)Nc1ccc([N+](=O)[O-])c(C(F)(F)F)c1 [Flutamide],1.1 ± 0.089,1.01 ± 0.14,0.725 ± 0.44,1.28 ± 0.039,0.912 ± 0.051,1.06 ± 0.06,1.08 ± 0.43,–,0.298 ± 0.16,–,1.35 ± 0.46,1.23 ± 0.31,0.919 ± 0.35,1.05 ± 0.17,1.76 ± 0.15,1.25 ± 0.069,1.8 ± 0.93,0.664 ± 0.029
c1ccc2[nH]c(-c3cscn3)nc2c1 [Thiabendazole],1.41 ± 0.081,0.746 ± 0.2,1.06 ± 0.057,0.805 ± 0.24,0.815 ± 0.16,1.23 ± 0.15,–,0.439 ± 0.3,0.535 ± 0.04,0.398 ± 0.076,1.17 ± 0.72,1.58 ± 0.69,1.6 ± 0.39,1.61 ± 0.63,1.06 ± 0.24,1 ± 0.21,1.22 ± 0.38,–
